These are yes or no findings as the source states them, for the method shown. Some entries that bind do so weakly or less than the wild type.
Key:
Assay in all cases: two-hybrid; AD-Hoxa1 (Gal4 activation domain) in MATa Y8800 mated with the DB-hORF library in MATα Y8930; 30°C; selection on Sc-L-T-H + 1 mM 3AT, retest on Sc-L-T-H, Sc-L-T-A and Sc-L-T-H-A+3AT
[1] = molecular target: IKAROS family zinc finger 2 (human) (UniProt Q9UKS7)
[2] = molecular target: T1, keratin associated protein 26-1 (human) (UniProt Q6PEX3)
T1 sequence: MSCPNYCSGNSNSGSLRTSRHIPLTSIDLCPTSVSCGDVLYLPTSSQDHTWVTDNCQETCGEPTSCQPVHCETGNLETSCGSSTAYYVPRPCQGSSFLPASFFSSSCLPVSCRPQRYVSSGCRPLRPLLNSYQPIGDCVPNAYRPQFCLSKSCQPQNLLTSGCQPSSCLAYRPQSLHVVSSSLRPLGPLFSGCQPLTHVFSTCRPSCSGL

Chains of the proteins cited; added tags and fusions are not shown.
UniProt Q9UKS7: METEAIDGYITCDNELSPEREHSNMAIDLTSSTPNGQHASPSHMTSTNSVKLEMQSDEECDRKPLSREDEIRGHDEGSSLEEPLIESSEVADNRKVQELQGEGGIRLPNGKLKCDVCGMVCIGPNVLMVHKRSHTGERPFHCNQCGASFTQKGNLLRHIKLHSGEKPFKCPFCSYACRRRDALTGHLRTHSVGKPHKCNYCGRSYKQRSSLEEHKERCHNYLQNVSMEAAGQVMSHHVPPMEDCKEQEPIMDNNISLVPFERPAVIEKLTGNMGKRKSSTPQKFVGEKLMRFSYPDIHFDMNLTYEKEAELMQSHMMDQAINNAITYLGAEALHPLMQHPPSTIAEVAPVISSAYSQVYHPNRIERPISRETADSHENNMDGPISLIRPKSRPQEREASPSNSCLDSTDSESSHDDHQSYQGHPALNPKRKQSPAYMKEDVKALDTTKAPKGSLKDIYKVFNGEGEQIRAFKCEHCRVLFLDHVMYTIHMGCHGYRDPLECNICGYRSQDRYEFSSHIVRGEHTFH
UniProt Q9BYR7: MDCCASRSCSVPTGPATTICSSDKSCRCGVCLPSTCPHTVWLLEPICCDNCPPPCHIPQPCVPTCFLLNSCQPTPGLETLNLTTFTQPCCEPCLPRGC
UniProt O95967: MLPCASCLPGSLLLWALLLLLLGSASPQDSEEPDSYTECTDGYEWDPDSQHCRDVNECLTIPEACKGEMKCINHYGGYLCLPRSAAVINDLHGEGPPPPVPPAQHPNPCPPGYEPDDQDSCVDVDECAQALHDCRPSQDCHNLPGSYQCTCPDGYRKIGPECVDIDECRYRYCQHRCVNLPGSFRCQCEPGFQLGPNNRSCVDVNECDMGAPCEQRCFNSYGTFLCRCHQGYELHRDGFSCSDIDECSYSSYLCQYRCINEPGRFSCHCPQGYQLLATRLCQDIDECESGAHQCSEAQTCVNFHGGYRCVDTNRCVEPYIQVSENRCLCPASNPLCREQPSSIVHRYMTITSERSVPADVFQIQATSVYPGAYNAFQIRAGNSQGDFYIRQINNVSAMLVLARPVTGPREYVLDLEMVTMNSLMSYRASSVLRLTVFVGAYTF
UniProt P09022: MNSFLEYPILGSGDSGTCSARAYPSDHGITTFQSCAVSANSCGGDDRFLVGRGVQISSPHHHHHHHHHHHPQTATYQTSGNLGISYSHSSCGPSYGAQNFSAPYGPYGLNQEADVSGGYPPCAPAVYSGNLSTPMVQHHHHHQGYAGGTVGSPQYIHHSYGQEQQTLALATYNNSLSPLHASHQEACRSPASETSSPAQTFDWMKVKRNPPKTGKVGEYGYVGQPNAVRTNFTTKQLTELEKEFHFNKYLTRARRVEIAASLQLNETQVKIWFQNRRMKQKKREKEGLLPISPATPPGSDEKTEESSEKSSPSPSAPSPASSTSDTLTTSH

[3] = molecular target: T2, glycoprotein IX (platelet) (human) (UniProt P14770)
T2 sequence: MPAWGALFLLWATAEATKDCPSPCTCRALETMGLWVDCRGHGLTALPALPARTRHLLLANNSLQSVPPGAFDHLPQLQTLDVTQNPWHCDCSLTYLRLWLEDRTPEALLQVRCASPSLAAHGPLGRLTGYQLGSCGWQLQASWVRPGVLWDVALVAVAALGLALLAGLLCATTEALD

[4] = molecular target: T3, zinc finger, ZZ-type containing 3 (human) (UniProt Q8IYH5)
T3 sequence: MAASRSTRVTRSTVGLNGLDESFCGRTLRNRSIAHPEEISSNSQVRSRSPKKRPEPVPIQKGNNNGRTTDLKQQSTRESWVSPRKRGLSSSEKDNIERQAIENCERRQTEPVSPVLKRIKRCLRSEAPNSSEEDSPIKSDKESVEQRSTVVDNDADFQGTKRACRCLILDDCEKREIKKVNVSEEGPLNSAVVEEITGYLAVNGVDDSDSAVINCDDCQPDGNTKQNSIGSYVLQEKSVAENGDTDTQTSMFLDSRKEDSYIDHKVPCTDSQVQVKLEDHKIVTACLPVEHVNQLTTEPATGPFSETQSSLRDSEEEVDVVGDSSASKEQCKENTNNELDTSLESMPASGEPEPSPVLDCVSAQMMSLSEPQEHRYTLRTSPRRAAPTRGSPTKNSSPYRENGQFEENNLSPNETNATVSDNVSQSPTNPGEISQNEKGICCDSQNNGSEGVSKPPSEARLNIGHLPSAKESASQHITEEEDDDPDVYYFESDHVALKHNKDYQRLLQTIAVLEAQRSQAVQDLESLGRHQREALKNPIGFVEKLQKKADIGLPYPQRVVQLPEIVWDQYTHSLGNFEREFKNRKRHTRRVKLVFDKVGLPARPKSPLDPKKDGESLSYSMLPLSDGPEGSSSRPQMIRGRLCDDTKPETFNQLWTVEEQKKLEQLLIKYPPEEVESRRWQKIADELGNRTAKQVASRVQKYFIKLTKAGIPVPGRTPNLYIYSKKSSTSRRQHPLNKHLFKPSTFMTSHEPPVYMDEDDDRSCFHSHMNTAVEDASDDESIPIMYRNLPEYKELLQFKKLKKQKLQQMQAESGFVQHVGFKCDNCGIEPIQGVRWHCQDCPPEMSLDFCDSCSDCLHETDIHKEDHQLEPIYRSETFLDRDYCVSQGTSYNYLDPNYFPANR

[5] = molecular target: keratin associated protein 3-2 (human) (UniProt Q9BYR7)
[6] = molecular target: T4, 1-acylglycerol-3-phosphate O-acyltransferase 1 (human) (UniProt Q99943)
T4 sequence: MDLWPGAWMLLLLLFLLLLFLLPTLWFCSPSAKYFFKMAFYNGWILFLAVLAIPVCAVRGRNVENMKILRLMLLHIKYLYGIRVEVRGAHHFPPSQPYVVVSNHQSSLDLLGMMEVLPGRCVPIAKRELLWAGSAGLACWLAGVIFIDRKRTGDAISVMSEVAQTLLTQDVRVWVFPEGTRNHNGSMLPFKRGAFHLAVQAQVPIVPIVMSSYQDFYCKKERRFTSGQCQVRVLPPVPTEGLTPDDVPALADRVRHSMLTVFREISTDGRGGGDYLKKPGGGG

[7] = molecular target: EGF-containing fibulin-like extracellular matrix protein 2 (human) (UniProt O95967)
[8] = molecular target: T5, keratin associated protein 5-9 (human) (UniProt P26371)
T5 sequence: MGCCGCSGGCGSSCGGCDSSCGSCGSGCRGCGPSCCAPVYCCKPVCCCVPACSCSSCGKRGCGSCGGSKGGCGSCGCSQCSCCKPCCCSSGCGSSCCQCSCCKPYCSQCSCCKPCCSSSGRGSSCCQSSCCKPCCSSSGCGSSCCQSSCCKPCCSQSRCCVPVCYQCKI

Measured: binding

Hoxa1 (from UniProt P09022 1-331)
binds: [1] | [2] | [3] | [4] | [5] | [6] | [7] | [8]

Source: article PMC3514159
